Measured values from publication PMC6289461, “Mek1 coordinates meiotic progression with DNA break repair by directly phosphorylating and inhibiting the yeast pachytene exit regulator Ndt80”.
A weaker result is weaker than the reference pair of the same experiment. Protein sequences can lack the tags named with them.

Amino acid sequences for entries named in this document (tags omitted). A change or cut given only in a name is not applied to a line headed by its entry.
UniProt P38830: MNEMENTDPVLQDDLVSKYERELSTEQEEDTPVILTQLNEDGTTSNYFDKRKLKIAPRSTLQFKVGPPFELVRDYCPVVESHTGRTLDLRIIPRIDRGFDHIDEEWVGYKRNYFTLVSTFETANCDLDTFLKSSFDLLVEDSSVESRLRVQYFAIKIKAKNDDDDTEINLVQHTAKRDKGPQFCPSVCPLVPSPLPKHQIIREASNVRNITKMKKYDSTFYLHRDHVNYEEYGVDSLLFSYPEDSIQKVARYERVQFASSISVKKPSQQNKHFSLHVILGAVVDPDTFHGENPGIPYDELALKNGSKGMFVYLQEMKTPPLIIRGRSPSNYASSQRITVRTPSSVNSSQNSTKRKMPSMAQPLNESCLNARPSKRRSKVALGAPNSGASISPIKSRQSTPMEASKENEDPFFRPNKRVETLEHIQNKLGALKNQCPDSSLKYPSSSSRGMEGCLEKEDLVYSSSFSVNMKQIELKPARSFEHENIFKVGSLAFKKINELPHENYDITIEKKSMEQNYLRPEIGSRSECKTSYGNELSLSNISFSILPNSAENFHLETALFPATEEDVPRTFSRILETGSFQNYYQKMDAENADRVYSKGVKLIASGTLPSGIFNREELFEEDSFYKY

Molecular target: T1, 6xHis-Ndt80 5A DBD S24A,S205A,T211A,S327A,S329A (Saccharomyces cerevisiae) (UniProt P38830)
T1 sequence (looked up): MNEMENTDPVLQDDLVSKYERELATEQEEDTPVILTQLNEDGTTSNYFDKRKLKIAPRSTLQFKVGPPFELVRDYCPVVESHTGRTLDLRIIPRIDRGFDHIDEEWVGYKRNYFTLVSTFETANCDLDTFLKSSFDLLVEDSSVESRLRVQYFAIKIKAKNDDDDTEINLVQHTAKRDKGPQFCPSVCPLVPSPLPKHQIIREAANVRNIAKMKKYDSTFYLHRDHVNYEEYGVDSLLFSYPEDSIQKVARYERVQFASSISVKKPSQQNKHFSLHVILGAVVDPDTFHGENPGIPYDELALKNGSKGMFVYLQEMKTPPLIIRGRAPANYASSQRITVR
Assay: EMSA
Conditions: 50 nM DBD, 50 nM duplex, less efficient than WT; EMSA: 10 mM Tris-HCl pH 7.5, 40 mM NaCl, 4 mM MgCl2, 6% glycerol, 10 mg/ml BSA, 10 ug/ml sonicated salmon sperm DNA; 20 ul, room temperature, 30 min; 6% PAGE in 0.5X TBE; recombinant protein; residues 1-340; protein details: N-terminal 6xHis (pET-28a); label: 5' Cy3 on strand 1

## ATTGACGCGCGCCACAAAAACGTATCATT (double strand) [Cy3-MSE (SPS4 MSE duplex)]
  binding result: binds more weakly
